From PubChem BioAssay AID252 (DTP/NCI, 2004)
The list does not hold the whole screen: it gathers tests that were run many times, whatever their T/C, doses with no T/C, and many T/C values between a quarter and a half above the control. Other doses and runs of a compound stand elsewhere. T/C gives the treated animals as a percentage of the vehicle group. Some entries give survivors of the animals treated and no T/C: the source files T/C as zero there, which appears to mark a toxic dose or a test without result, not a measured value. Some survivor counts are full or nearly so, which does not show that the dose was tolerated: the source hardly ever lists a survival T/C far under the control, and the zero likely stands for such cases as well. Survivors were counted at the toxicity check, usually on the fifth day, unless a day is given; later deaths do not show. Schedule codes are those of the source, taken here to give the interval after Q, in days (D) or hours (H), and the number of doses after X. Some schedule codes hold Z or #, which are not explained here. Some entries were tested several times; the values are given in rising order. For survival time, this PubChem deposit counts one and a half times the control or more as active, and values a quarter to a half above the control carry no call in these data; other NCI protocols may use other cut-offs. Some T/C values carry the count of animals alive at the toxicity check (mostly the fifth day); where none is given, no animal had died by that day.

System: BDF1 mice, intracerebral L1210 leukemia, survival T/C
Assay: NCI In Vivo Anticancer Drug Screen. Data for tumor model L1210 Leukemia (intracerebral) in B6D2F1 (BDF1) mice
Settings: higher T/C = longer survival
Protocol: The antitumor activity of compounds was measured in mice bearing transplantable tumors. Survival or tumor size were measured and the results are expressed as the measurement made in the treated group (T) divided by the measurement made in the vehicle treated control group (C). The tumor model used in this assay is L1210 Leukemia (intracerebral) in B6D2F1 (BDF1) mice

[1] = T/C endpoint: mean survival time, dose: 16.0 mg/kg/injection, schedule: Q01DX001 (ip), vehicle: other
[2] = T/C endpoint: mean survival time, dose: 20.0 mg/kg/injection, schedule: Q01DX001 (ip), vehicle: other
[3] = T/C endpoint: mean survival time, dose: 30.0 mg/kg/injection, schedule: Q01DX001 (ip), vehicle: other
[4] = T/C endpoint: mean survival time, dose: 207.0 mg/kg/injection, schedule: Q01DX001 (ip), vehicle: carboxymethylcellulose (CMC)

## CN(N=O)C(N)=O
T/C endpoint: mean survival time, dose: 144.0 mg/kg/injection, schedule: Q01DX001 (ip), vehicle: saline
  survivor count: 6 of 10
T/C endpoint: mean survival time, dose: 288.0 mg/kg/injection, schedule: Q01DX001 (ip), vehicle: saline
  survivor count: 0 of 10

## O=NN(CCF)C(=O)NCCCl
T/C endpoint: mean survival time, dose: 48.0 mg/kg/injection, schedule: Q01DX001 (ip), vehicle: Klucel (hydroxypropylcellulose) (HPC)
  survivor count: 6 of 10
T/C endpoint: mean survival time, dose: 71.0 mg/kg/injection, schedule: Q01DX001 (ip), vehicle: Klucel (hydroxypropylcellulose) (HPC)
  survivor count: 5 of 10

## CN(C)C(=O)c1ccc(NC(=O)N(CCCl)N=O)cc1
T/C endpoint: mean survival time, dose: 12.0 mg/kg/injection, schedule: Q01DX001 (ip), vehicle: other
  T/C: 129 % of control [5 of 6 alive]
[1]
  T/C: 125 % of control

## Cc1cc(C)c(NC(=O)N(CCCl)N=O)c(C)c1
[2]
  T/C: 144 % of control
T/C endpoint: mean survival time, dose: 25.0 mg/kg/injection, schedule: Q01DX001 (ip), vehicle: other
  T/C: 125 % of control
[3]
  T/C: 125 and 134 % of control
T/C endpoint: mean survival time, dose: 38.0 mg/kg/injection, schedule: Q01DX001 (ip), vehicle: other
  T/C: 148 % of control
T/C endpoint: mean survival time, dose: 45.0 mg/kg/injection, schedule: Q01DX001 (ip), vehicle: other
  T/C: 129 and 134 % of control
T/C endpoint: mean survival time, dose: 57.0 mg/kg/injection, schedule: Q01DX001 (ip), vehicle: other
  T/C: 144 % of control
T/C endpoint: mean survival time, dose: 68.0 mg/kg/injection, schedule: Q01DX001 (ip), vehicle: other
  T/C: 141 % of control
T/C endpoint: mean survival time, dose: 86.0 mg/kg/injection, schedule: Q01DX001 (ip), vehicle: other
  T/C: 140 % of control

## CN(N=O)C(=O)Nc1c[nH]c(=O)[nH]c1=O
T/C endpoint: mean survival time, dose: 240.0 mg/kg/injection, schedule: Q01DX001 (ip), vehicle: saline
  T/C: 129 % of control

## N[C@@H](Cc1ccc(N(CCCl)CCCl)cc1)C(=O)O
T/C endpoint: mean survival time, dose: 4.0 mg/kg/injection, schedule: Q01DX009 (ip), vehicle: saline
  T/C: 147 % of control
T/C endpoint: mean survival time, dose: 4.0 mg/kg/injection, schedule: Q01DX Z (ip), vehicle: carboxymethylcellulose (CMC)
  T/C: 140 % of control
T/C endpoint: mean survival time, dose: 8.0 mg/kg/injection, schedule: Q01DX009 (ip), vehicle: saline
  T/C: 131 % of control
T/C endpoint: mean survival time, dose: 9.0 mg/kg/injection, schedule: Q01DX001 (ip), vehicle: carboxymethylcellulose (CMC)
  T/C: 126 % of control
T/C endpoint: mean survival time, dose: 12.5 mg/kg/injection, schedule: Q01DX Z (ip), vehicle: carboxymethylcellulose (CMC)
  survivor count: 10 of 10
T/C endpoint: mean survival time, dose: 14.0 mg/kg/injection, schedule: Q01DX001 (ip), vehicle: carboxymethylcellulose (CMC), evaluated on day 45
  T/C: 131 % of control
T/C endpoint: mean survival time, dose: 14.0 mg/kg/injection, schedule: Q01DX001 (ip), vehicle: carboxymethylcellulose (CMC), run until all animals had died
  T/C: 128 % of control
T/C endpoint: mean survival time, dose: 16.0 mg/kg/injection, schedule: Q01DX009 (ip), vehicle: saline
  survivor count: 9 of 10
T/C endpoint: mean survival time, dose: 18.0 mg/kg/injection, schedule: Q01DX001 (ip), vehicle: carboxymethylcellulose (CMC)
  T/C: 127 % of control
T/C endpoint: mean survival time, dose: 21.0 mg/kg/injection, schedule: Q01DX001 (ip), vehicle: carboxymethylcellulose (CMC)
  T/C: 135 % of control [9 of 10 alive]
T/C endpoint: mean survival time, dose: 25.0 mg/kg/injection, schedule: Q01DX Z (ip), vehicle: carboxymethylcellulose (CMC)
  survivor count: 8 of 10 and 9 of 10
T/C endpoint: mean survival time, dose: 29.0 mg/kg/injection, schedule: Q01DX001 (ip), vehicle: carboxymethylcellulose (CMC)
  survivor count: 9 of 10
T/C endpoint: mean survival time, dose: 50.0 mg/kg/injection, schedule: Q01DX Z (ip), vehicle: carboxymethylcellulose (CMC)
  survivor count: 0 of 10, 2 of 10, 4 of 10
T/C endpoint: mean survival time, dose: 75.0 mg/kg/injection, schedule: Q01DX Z (ip), vehicle: carboxymethylcellulose (CMC)
  survivor count: 0 of 10

## O=NN(CCCl)C(=O)N[C@H]1CCCC[C@H]1Cl
T/C endpoint: mean survival time, dose: 25.0 mg/kg/injection, schedule: Q01DX001 (ip), vehicle: carboxymethylcellulose (CMC)
  T/C: 127 and 136 % of control
T/C endpoint: mean survival time, dose: 36.0 mg/kg/injection, schedule: Q01DX001 (ip), vehicle: carboxymethylcellulose (CMC)
  T/C: 131 % of control
T/C endpoint: mean survival time, dose: 40.0 mg/kg/injection, schedule: Q01DX001 (ip), vehicle: carboxymethylcellulose (CMC)
  T/C: 127 and 133 % of control
[4]
  T/C: 139 % of control
  survivor count: 10 of 10

## O=NN(CCCl)C(=O)Nc1ccc2c(c1)CCCC2
T/C endpoint: mean survival time, dose: 55.0 mg/kg/injection, schedule: Q01DX001 (ip), vehicle: carboxymethylcellulose (CMC)
  T/C: 127 and 128 % of control
T/C endpoint: mean survival time, dose: 84.0 mg/kg/injection, schedule: Q01DX001 (ip), vehicle: carboxymethylcellulose (CMC)
  T/C: 142 and 145 % of control
T/C endpoint: mean survival time, dose: 119.0 mg/kg/injection, schedule: Q01DX001 (ip), vehicle: carboxymethylcellulose (CMC)
  T/C: 142 % of control
T/C endpoint: mean survival time, dose: 125.0 mg/kg/injection, schedule: Q01DX001 (ip), vehicle: carboxymethylcellulose (CMC)
  T/C: 144 % of control
T/C endpoint: mean survival time, dose: 187.0 mg/kg/injection, schedule: Q01DX001 (ip), vehicle: carboxymethylcellulose (CMC)
  T/C: 141 % of control
T/C endpoint: mean survival time, dose: 357.0 mg/kg/injection, schedule: Q01DX001 (ip), vehicle: carboxymethylcellulose (CMC)
  survivor count: 1 of 10
T/C endpoint: mean survival time, dose: 476.0 mg/kg/injection, schedule: Q01DX001 (ip), vehicle: carboxymethylcellulose (CMC)
  survivor count: 0 of 10

## Cc1cccc2c(Nc3ccc(NS(C)(=O)=O)cc3)c3ccc([N+](=O)[O-])cc3nc12
T/C endpoint: mean survival time, dose: 40.0 mg/kg/injection, schedule: Q01DX009 (ip), vehicle: saline
  survivor count: 10 of 10
T/C endpoint: mean survival time, dose: 80.0 mg/kg/injection, schedule: Q01DX009 (ip), vehicle: saline
  survivor count: 10 of 10
T/C endpoint: mean survival time, dose: 80.0 mg/kg/injection, schedule: Q01DX009 (sc), vehicle: saline
  survivor count: 8 of 10

## CCOC(=O)C1CCC(NC(=O)N(CCCl)N=O)CC1 (stereo unspecified)
T/C endpoint: mean survival time, dose: 8.0 mg/kg/injection, schedule: Q01DX001 (ip), vehicle: other
  T/C: 132 % of control
[1]
  T/C: 125 and 131 % of control
[2]
  T/C: 137 % of control
T/C endpoint: mean survival time, dose: 21.0 mg/kg/injection, schedule: Q01DX001 (ip), vehicle: other
  T/C: 132 and 139 % of control
[3]
  T/C: 149 % of control
T/C endpoint: mean survival time, dose: 100.0 mg/kg/injection, schedule: Q01DX001 (ip), vehicle: other
  survivor count: 9 of 10

## CN(C)/N=N/c1nc[nH]c1C(N)=O
T/C endpoint: mean survival time, dose: 270.0 mg/kg/injection, schedule: Q01DX Z (ip), vehicle: carboxymethylcellulose (CMC)
  survivor count: 10 of 10
T/C endpoint: mean survival time, dose: 720.0 mg/kg/injection, schedule: Q01DX001 (ip), vehicle: carboxymethylcellulose (CMC)
  survivor count: 4 of 10
T/C endpoint: mean survival time, dose: 1080.0 mg/kg/injection, schedule: Q01DX001 (ip), vehicle: carboxymethylcellulose (CMC)
  survivor count: 0 of 10
T/C endpoint: mean survival time, dose: 1620.0 mg/kg/injection, schedule: Q01DX001 (ip), vehicle: carboxymethylcellulose (CMC)
  survivor count: 3 of 10
T/C endpoint: median survival time, dose: 640.0 mg/kg/injection, schedule: Q01DX009 (ip), vehicle: carboxymethylcellulose (CMC)
  survivor count: 3 of 10
T/C endpoint: median survival time, dose: 800.0 mg/kg/injection, schedule: Q01DX009 (ip), vehicle: carboxymethylcellulose (CMC)
  survivor count: 0 of 8

## O=NN(CCF)C(=O)NC1CCS(=O)(=O)CC1
T/C endpoint: mean survival time, dose: 4.8 mg/kg/injection, schedule: Q01DX001 (oral), vehicle: other
  T/C: 128 % of control
T/C endpoint: mean survival time, dose: 6.0 mg/kg/injection, schedule: Q01DX001 (ip), vehicle: other
  T/C: 126 % of control
T/C endpoint: mean survival time, dose: 48.0 mg/kg/injection, schedule: Q01DX001 (ip), vehicle: other
  survivor count: 5 of 10
T/C endpoint: mean survival time, dose: 60.0 mg/kg/injection, schedule: Q01DX001 (ip), vehicle: other
  survivor count: 5 of 10
T/C endpoint: mean survival time, dose: 80.0 mg/kg/injection, schedule: Q01DX001 (ip), vehicle: other
  survivor count: 3 of 10
T/C endpoint: mean survival time, dose: 80.0 mg/kg/injection, schedule: Q01DX001 (oral), vehicle: other
  survivor count: 2 of 10
T/C endpoint: mean survival time, dose: 120.0 mg/kg/injection, schedule: Q01DX001 (ip), vehicle: other
  survivor count: 2 of 10

## COCCOC1=C(N2CC2)C(=O)C(OCCOC)=C(N2CC2)C1=O
T/C endpoint: mean survival time, dose: 1.0 mg/kg/injection, schedule: Q01DX009 (ip), vehicle: saline
  T/C: 126 % of control

## O=NN(CCCl)C(=O)Nc1ccc2ccccc2c1
T/C endpoint: mean survival time, dose: 450.0 mg/kg/injection, schedule: Q01DX001 (ip), vehicle: carboxymethylcellulose (CMC)
  survivor count: 5 of 10

## CNC(=O)NC(=O)N(C)N=O
T/C endpoint: mean survival time, dose: 262.0 mg/kg/injection, schedule: Q01DX001 (ip), vehicle: carboxymethylcellulose (CMC)
  survivor count: 9 of 10
